The values that follow come from paper PMC11304246.

Chains of the proteins cited; added tags and fusions are not shown.
UniProt P11940: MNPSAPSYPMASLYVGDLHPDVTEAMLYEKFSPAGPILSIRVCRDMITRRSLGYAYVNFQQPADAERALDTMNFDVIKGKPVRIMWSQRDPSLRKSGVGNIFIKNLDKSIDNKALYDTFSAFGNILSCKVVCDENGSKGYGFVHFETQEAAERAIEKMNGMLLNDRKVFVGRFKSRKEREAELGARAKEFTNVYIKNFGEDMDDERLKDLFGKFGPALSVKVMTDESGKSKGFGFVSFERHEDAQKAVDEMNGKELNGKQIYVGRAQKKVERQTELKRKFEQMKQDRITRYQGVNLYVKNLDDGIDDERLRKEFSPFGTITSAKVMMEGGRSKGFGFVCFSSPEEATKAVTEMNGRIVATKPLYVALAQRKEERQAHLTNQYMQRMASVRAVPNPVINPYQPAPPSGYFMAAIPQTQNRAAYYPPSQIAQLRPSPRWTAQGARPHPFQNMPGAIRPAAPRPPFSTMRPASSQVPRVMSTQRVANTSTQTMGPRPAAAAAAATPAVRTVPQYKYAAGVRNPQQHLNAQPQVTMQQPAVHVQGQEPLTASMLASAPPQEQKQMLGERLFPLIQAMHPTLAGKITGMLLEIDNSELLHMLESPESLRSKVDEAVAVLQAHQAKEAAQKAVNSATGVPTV

The experiment has as its target T1, DAZ1-FLAG-3×HA (deleted in azoospermia 1), stably overexpressed in DAOY cells (human) (UniProt Q9NQZ3).
T1 sequence: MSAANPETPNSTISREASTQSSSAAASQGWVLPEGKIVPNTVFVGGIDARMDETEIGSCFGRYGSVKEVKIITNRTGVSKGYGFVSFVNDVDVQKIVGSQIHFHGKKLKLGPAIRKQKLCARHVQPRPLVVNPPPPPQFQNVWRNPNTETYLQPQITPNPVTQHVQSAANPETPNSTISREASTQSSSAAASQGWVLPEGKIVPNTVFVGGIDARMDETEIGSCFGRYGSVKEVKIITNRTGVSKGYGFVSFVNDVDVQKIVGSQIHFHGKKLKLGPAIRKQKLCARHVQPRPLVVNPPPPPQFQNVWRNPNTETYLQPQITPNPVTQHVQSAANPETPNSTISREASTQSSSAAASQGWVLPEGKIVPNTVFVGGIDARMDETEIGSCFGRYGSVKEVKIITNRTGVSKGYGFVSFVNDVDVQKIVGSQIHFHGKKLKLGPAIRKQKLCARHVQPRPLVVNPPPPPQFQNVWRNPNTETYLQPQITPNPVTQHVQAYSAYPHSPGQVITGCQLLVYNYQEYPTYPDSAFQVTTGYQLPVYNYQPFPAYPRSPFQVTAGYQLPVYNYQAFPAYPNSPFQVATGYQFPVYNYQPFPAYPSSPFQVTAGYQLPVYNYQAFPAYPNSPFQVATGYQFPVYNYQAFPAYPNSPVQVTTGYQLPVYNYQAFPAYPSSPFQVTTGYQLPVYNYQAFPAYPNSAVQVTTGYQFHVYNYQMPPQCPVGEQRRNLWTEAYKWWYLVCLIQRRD
The experiment is described as follows: affinity purification with mass spectrometry; FLAG beads, lysate of the DAOY cell line stably overexpressing DAZ-FLAG; complexes separated by SDS-PAGE, silver stain, mass spectrometry.

Results are given in words; binding and its absence hold for the method and conditions named. Binding seen in cells or lysates may run through a third protein. A yes stands for co-enrichment or nearness to the bait. Other partners may have been found. Sequences can lack the tags named with a protein.

As to “PABPC1 (Poly A Binding Protein Cytoplasmic 1), in DAOY cells (from UniProt P11940 1-636)”, the binding entry is reported as “binds”.
